{"source": "patent US6689382B2", "about": "“Soft shell gelatin capsules containing non-steroidal anti-inflammatories” (priority 2002, dated 2004)", "origin": "cited, not measured here", "tested_on": "COX-2 and COX-1", "details": "in vitro; the smaller the ratio the more selective for COX-2", "note": "For at least one compound, name, drawing or mass did not settle the structure."}
{"smiles": "Cc1cnc(NC(=O)C2=C(O)c3ccccc3S(=O)(=O)N2C)s1", "note": "[meloxicam]", "values": [{"measurement": "ratio COX-2 IC50 divided by COX-1 IC50", "result": "about 0.3"}]}
